Our source for the binding values is paper PMC10620119.

Sequences of proteins named here, by UniProt entry; tags and fusion partners are left off.
UniProt Q8CBW3: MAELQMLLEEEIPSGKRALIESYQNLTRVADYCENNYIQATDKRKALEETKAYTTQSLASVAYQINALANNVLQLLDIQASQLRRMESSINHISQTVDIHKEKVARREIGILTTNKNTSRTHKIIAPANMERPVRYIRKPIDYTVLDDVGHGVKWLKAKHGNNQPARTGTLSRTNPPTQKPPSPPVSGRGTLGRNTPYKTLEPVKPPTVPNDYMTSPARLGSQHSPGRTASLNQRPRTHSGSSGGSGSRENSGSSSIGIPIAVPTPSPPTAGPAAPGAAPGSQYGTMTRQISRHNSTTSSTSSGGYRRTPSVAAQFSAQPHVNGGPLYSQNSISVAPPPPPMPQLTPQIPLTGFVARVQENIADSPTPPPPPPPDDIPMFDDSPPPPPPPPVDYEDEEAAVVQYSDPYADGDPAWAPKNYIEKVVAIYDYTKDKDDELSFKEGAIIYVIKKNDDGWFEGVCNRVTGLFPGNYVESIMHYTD
UniProt Q62210: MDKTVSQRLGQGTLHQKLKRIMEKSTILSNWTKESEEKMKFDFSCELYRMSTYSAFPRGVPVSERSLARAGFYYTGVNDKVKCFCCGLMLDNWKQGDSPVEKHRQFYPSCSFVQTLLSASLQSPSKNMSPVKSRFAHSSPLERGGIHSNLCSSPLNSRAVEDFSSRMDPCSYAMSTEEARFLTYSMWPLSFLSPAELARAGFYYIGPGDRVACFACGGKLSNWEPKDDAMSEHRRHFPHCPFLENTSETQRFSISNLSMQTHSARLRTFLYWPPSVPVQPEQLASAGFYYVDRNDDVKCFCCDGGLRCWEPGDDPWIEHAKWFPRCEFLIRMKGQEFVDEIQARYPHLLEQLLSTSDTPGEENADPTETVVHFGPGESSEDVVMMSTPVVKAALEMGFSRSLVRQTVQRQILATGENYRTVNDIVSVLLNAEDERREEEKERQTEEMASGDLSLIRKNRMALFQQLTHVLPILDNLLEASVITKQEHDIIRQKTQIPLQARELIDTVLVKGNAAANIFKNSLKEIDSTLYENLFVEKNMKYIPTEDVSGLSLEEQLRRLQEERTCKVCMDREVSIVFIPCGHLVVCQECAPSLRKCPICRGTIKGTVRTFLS
UniProt O08863: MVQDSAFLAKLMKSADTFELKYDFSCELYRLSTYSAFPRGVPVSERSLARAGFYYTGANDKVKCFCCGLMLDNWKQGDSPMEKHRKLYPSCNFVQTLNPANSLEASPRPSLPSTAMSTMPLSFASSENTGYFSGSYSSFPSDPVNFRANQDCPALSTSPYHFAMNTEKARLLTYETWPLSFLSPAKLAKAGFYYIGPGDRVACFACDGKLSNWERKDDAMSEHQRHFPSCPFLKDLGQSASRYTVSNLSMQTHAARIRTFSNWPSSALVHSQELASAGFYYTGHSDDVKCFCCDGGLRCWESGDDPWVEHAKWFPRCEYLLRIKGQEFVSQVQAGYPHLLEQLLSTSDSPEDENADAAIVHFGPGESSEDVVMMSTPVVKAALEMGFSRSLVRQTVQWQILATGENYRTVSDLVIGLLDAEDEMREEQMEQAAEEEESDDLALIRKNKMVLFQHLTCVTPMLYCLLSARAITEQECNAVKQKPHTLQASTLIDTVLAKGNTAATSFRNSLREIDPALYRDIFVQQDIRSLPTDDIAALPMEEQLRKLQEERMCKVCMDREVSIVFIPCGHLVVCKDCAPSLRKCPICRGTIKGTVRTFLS

Results are given in words; binding and its absence hold for the method and conditions named. In cells and extracts the contact can be indirect. A yes stands for co-enrichment or nearness to the bait. Other partners may have been found. For some of these results: No binding means not detected with the bait.

The target of assay [1] is TurboID-13xGGGGS linker-ABI1 (TurboABI1) (mouse) (UniProt Q8CBW3). Put plainly: proximity labelling; TurboID-ABI1 (TurboABI1 #1) stably expressed in NIH/3T3; 50 uM biotin for 3 h at 37 C; RIPA lysis; magnetic streptavidin beads overnight at 4 C; on-bead tryptic digestion, label-free LC-MS/MS; compared with TurboControl #1 and WT; hits: PA ratio >= 1.5 and PSM ratio >= 1.5 (FDR <= 0.05), minimum average 1 PSM per injection.

The target is the same in assay [2]. The assay is described as follows: proximity labelling; small-scale biotinylation: 1e6 cells per 10-cm dish, 500 uM biotin for 10 min; western blot of whole cell and streptavidin-enriched lysates of TurboControl and TurboABI1 cell lines. (In general: In western blotting, separated proteins are transferred to a membrane and probed.)
Assay [3] has the same target. The assay is described as follows: proximity labelling; TurboID-ABI1 (TurboABI1 #1) stably expressed in NIH/3T3; 50 uM biotin for 3 h at 37 C; RIPA lysis; magnetic streptavidin beads overnight at 4 C; on-bead tryptic digestion, label-free LC-MS/MS; compared with TurboControl #1 and WT; hits: PA ratio >= 1.5 and PSM ratio >= 1.5 (FDR <= 0.05), minimum average 1 PSM per injection. The source holds these as a separate data set.

In the case of “cellular inhibitor of apoptosis protein 1 (cIAP1) (from UniProt Q62210 1-612)”, in assay [1], the binding entry is on record as “no binding”.
Same read-out and setting: the entry for “cellular inhibitor of apoptosis protein 2 (cIAP2) (from UniProt O08863 1-600)” is “no binding”.

B1: ELKS/RAB6-interacting/CAST family member 1 (ERC1) (protein, UniProt Q99MI1 1-1120)
chain: MYGSARSVGKVEPSSQSPGRSPRLPRSPRLGHRRTNSTGGSSGNSVGGGSGKTLSMENIQSLNAAYATSGPMYLSDHENVGAETPKSTMTLGRSGGRLPYGVRMTAMGSSPNIASSGVASDTIAFGEHHLPPVSMASTVPHSLRQARDNTIMDLQTQLKEVLRENDLLRKDVEVKESKLSSSMNSIKTFWSPELKKERALRKDEASKITIWKEQYRVVQEENQHMQMTIQALQDELRIQRDLNQLFQQDSSSRTGEPCVAELTEENFQRLHAEHERQAKELFLLRKTLEEMELRIETQKQTLNARDESIKKLLEMLQSKGLSAKATEEDHERTRRLAEAEMHVHHLESLLEQKEKENNMLREEMHRRFENAPDSAKTKALQTVIEMKDSKISSMERGLRDLEEEIQMLKSNGALSSEEREEEMKQMEVYRSHSKFMKNKVEQLKEELSSKDAQGEELKKRAAGLQSEIGQVKQELSRKDTELLALQTKLETLTNQFSDSKQHIEVLKESLTAKEQRAAILQTEVDALRLRLEEKETMLNKKTKQIQDMAEEKGTQAGEIHDLKDMLDVKERKVNVLQKKIENLQEQLRDKEKQMSSLKERVKSLQADTTNTDTALTTLEEALADKERTIERLKEQRDRDEREKQEEIDTYKKDLKDLREKVSLLQGDLSEKEASLLDIKEHASSLASSGLKKDSRLKTLEIALEQKKEECLKMESQLKKAHEATLEARASPEMSDRIQQLEREISRYKDESSKAQTEVDRLLEILKEVENEKNDKDKKIAELESLTSRQVKDQNKKVANLKHKEQVEKKKSAQMLEEARRREDSLSDSSQQLQDSLRKKDDRIEELEEALRESVQITAEREMVLAQEESARTNAEKQVEELLMAMEKVKQELESMKAKLSSTQQSLAEKETHLTNLRAERRKHLEEVLEMKQEALLAAISEKDANIALLELSSSKKKTQEEVAALKREKDRLVQQLKQQTQNRMKLMADNYEDDHFRSSRSNQTNHKPSPDQIIQPLLELDQNRSKLKLYIGHLTALCHDRDPLILRGLTPPASYNADGEQAAWENELQQMTQEQLQNELEKVEGDNAELQEFANTILQQIADHCPDILEQVVNALEESS
Turning to B1, the binding result in assay [2] and in assay [3] was “binds” in each case.

B2: TRAF3 interacting protein 2 (TRAF3IP2) (protein, UniProt Q8N7N6 1-555)
chain: MNRSIPVEVDESEPFPSQLLKPIPEYSPEEELEPPAPNTRNMAPSSLSVLQCPPLKLANHQPVSQQVTCLRAKVLEEGEASFFRRHPELGKDISSCSSGASEPESELGALPPEHRFTLTEKRNRWLGSQLSAASPDTGHESDKSDPSLPNALADSFSGGQEMMPRPRPRPGPHRHRAAPDVPTIDTGYDSQPQDVLGIRQLERPLPLTSSCYLQDLPGPLRSRELPPQFELERYPMNAQLLPPHPSPQAPWNCQYYCPGGPYHHQVPHGHGYPPAAAYQQVLQPALPGQVLPGARARGPRPVQKVILNDSSPQDQEERPAQRDFSFPRLPRDQLYRPPSNGVEAPEESLDLPAELRPHGPQAPSLAAVPRPPSNPLARGTLRTSNLPEELRKVFITYSMDTAMEVVKFVNFLLVNGFQTAIDIFEDRIRGIDIIKWMERYLRDKTVMIIVAISPKYKQDVEGAESQLDEDEHGLHTKYIHRMMQIEFISQGSMNFRFIPVLFPNAKKEHVPTWLQNTHVYSWPKNKKNILLRLLREEEYVAPPRGPLPTLQVVPL
With B2, the binding entry in assay [3] is “binds”.

B3: tumor necrosis factor receptor type 1-associated DEATH domain protein (TRADD) (protein, UniProt Q3U0V2 1-310)
chain: MAAGQNGHEEWVGSAYLFLESAVDKVILSEAYTDPKKKVAIYKALQTALSESGDSSDVLQILKIHCSDPQLIVQLRFCGRVLCGRFLQAYREGALRTALQRCMAPALAQEALRLQLELRAGAEQLDSWLTDEERCLNYILAQKPDRLRDEELAELEDELCKLTCDCTGQGGAIQVASAGSKFPVSSPTEEKPLPAACQTFLFHGQLVVNRPLTLQDQQTFARSVGLKWRRVGRSLQRNCRALRDPALDSLAYEYERDGLYEQAFQLLRRFMQAEGRRATLQRLVEALEENELTSLAEDLLGQAEPDGGLA
In the case of B3, the binding result in assay [3] is “no binding”.

B4: serine/threonine-protein phosphatase 6 catalytic subunit (PPP6C) (protein, UniProt Q9CQR6 1-305)
chain: MAPLDLDKYVEIARQCKYLPENDLKRLCDYVCDLLLEESNVQPVSTPVTVCGDIHGQFYDLCELFRTGGQVPDTNYIFMGDFVDRGYYSLETFTYLLALKAKWPDRITLLRGNHESRQITQVYGFYDECQTKYGNANAWRYCTKVFDMLTVAALIDEQILCVHGGLSPDIKTLDQIRTIERNQEIPHKGAFCDLVWSDPEDVDTWAISPRGAGWLFGAKVTNEFVHINNLKLICRAHQLVHEGYKFMFDEKLVTVWSAPNYCYRCGNIASIMVFKDVNTREPKLFRAVPDSERVIPPRTTTPYFL
Turning to B4, in assay [3], the binding entry is reported as “binds”.
